Test results taken from patent US20250312453A1.
No constants are given. Whether binding was seen depends on the method and setting. Some entries that bind do so weakly or less than the wild type.

T1: Claudin18.2 protein (UniProt P56856)
T1 sequence (looked up): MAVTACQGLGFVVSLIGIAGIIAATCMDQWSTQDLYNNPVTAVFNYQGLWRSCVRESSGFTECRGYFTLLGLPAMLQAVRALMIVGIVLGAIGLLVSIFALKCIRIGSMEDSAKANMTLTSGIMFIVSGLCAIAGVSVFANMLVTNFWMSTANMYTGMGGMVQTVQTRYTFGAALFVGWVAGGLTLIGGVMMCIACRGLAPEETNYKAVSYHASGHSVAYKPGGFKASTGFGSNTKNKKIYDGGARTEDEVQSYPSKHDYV


biological target: T1, Claudin18.2 protein; test: flow cytometry, STAR-expressing T cells stained with Claudin18.2 protein

Binder | binding
NCLD04 STAR (protein) beta: DVQLQESGGGLVQPGGSLRLSCTASGLTFNDYAVSWLRQAPGKEREFVATIRGSGGVTNYGASAEGRFIISRENAENTVYLQMNSLKSEDTAVYYCNARPLFGWSEEYWGQGTQVTVSSEDLRNVTPPKVSLFEPSKAEIANKQKATLVCLARGFFPDHVELSWWVNGKEVHSGVCTDPQAYKESNYSYCLSSRLRVSATFWHNPRNHFRCQVQFHGLSEEDKWPEGSPKPVTQNISAEAWGRADCGITSASYQQGVLSATILYEILLGKATLYAVLVSTLVVMAMVKRKNS alpha: DIQNPEPAVYQLKDPRSQDSTLCLFTDFDSQINVPKTMESGTFITDKCVLDMKAMDSKSNGAIAWSNQTSFTCQDIFKETNATYPSSDVPCDATLTEKSFETDMNLNFQNLLVIVLRILLLKVAGFNLLMTLRLWGGGGSGGGGSGGGGSRRDQRLPPDAHKPPGGGSFRTPIQEEQADAHSTLAKI | binds
NCLD04β-NCR802α STAR (protein) beta: DVQLQESGGGLVQPGGSLRLSCTASGLTFNDYAVSWLRQAPGKEREFVATIRGSGGVTNYGASAEGRFIISRENAENTVYLQMNSLKSEDTAVYYCNARPLFGWSEEYWGQGTQVTVSSEDLRNVTPPKVSLFEPSKAEIANKQKATLVCLARGFFPDHVELSWWVNGKEVHSGVCTDPQAYKESNYSYCLSSRLRVSATFWHNPRNHFRCQVQFHGLSEEDKWPEGSPKPVTQNISAEAWGRADCGITSASYQQGVLSATILYEILLGKATLYAVLVSTLVVMAMVKRKNSRRDQRLPPDAHKPPGGGSFRTPIQEEQADAHSTLAKI alpha: DVQLQESGGGLVQPGGSLRLSCAASGFTFNYYHMGWVRQAPGKGPEWVSSIRSNADDTMYADSVKGRFTISRDNAKNTLYLQMNSLKAEDTALYSCARISAWRRPKEYDYLGQGTQVTVSSDIQNPEPAVYQLKDPRSQDSTLCLFTDFDSQINVPKTMESGTFITDKCVLDMKAMDSKSNGAIAWSNQTSFTCQDIFKETNATYPSSDVPCDATLTEKSFETDMNLNFQNLLVIVLRILLLKVAGFNLLMTLRLWSSRRDQRLPPDAHKPPGGGSFRTPIQEEQADAHSTLAKI | binds
NCLD04β-NCR802α STAR-mbIL-15 (protein) beta: DVQLQESGGGLVQPGGSLRLSCTASGLTFNDYAVSWLRQAPGKEREFVATIRGSGGVTNYGASAEGRFIISRENAENTVYLQMNSLKSEDTAVYYCNARPLFGWSEEYWGQGTQVTVSSEDLRNVTPPKVSLFEPSKAEIANKQKATLVCLARGFFPDHVELSWWVNGKEVHSGVCTDPQAYKESNYSYCLSSRLRVSATFWHNPRNHFRCQVQFHGLSEEDKWPEGSPKPVTQNISAEAWGRADCGITSASYQQGVLSATILYEILLGKATLYAVLVSTLVVMAMVKRKNSRRDQRLPPDAHKPPGGGSFRTPIQEEQADAHSTLAKI alpha: DVQLQESGGGLVQPGGSLRLSCAASGFTFNYYHMGWVRQAPGKGPEWVSSIRSNADDTMYADSVKGRFTISRDNAKNTLYLQMNSLKAEDTALYSCARISAWRRPKEYDYLGQGTQVTVSSDIQNPEPAVYQLKDPRSQDSTLCLFTDFDSQINVPKTMESGTFITDKCVLDMKAMDSKSNGAIAWSNQTSFTCQDIFKETNATYPSSDVPCDATLTEKSFETDMNLNFQNLLVIVLRILLLKVAGFNLLMTLRLWSSRRDQRLPPDAHKPPGGGSFRTPIQEEQADAHSTLAKI | binds

More lines, now with the values ahead:

binding | Binder
binds | NCR802β-NCLD04α STAR (protein) beta: DVQLQESGGGLVQPGGSLRLSCAASGFTFNYYHMGWVRQAPGKGPEWVSSIRSNADDTMYADSVKGRFTISRDNAKNTLYLQMNSLKAEDTALYSCARISAWRRPKEYDYLGQGTQVTVSSEDLRNVTPPKVSLFEPSKAEIANKQKATLVCLARGFFPDHVELSWWVNGKEVHSGVCTDPQAYKESNYSYCLSSRLRVSATFWHNPRNHFRCQVQFHGLSEEDKWPEGSPKPVTQNISAEAWGRADCGITSASYQQGVLSATILYEILLGKATLYAVLVSTLVVMAMVKRKNSRRDQRLPPDAHKPPGGGSFRTPIQEEQADAHSTLAKI alpha: DVQLQESGGGLVQPGGSLRLSCTASGLTFNDYAVSWLRQAPGKEREFVATIRGSGGVTNYGASAEGRFIISRENAENTVYLQMNSLKSEDTAVYYCNARPLFGWSEEYWGQGTQVTVSSDIQNPEPAVYQLKDPRSQDSTLCLFTDFDSQINVPKTMESGTFITDKCVLDMKAMDSKSNGAIAWSNQTSFTCQDIFKETNATYPSSDVPCDATLTEKSFETDMNLNFQNLLVIVLRILLLKVAGFNLLMTLRLWSSRRDQRLPPDAHKPPGGGSFRTPIQEEQADAHSTLAKI
binds | NCR802β-NCLD04α STAR-mbIL-15 (protein) beta: DVQLQESGGGLVQPGGSLRLSCAASGFTFNYYHMGWVRQAPGKGPEWVSSIRSNADDTMYADSVKGRFTISRDNAKNTLYLQMNSLKAEDTALYSCARISAWRRPKEYDYLGQGTQVTVSSEDLRNVTPPKVSLFEPSKAEIANKQKATLVCLARGFFPDHVELSWWVNGKEVHSGVCTDPQAYKESNYSYCLSSRLRVSATFWHNPRNHFRCQVQFHGLSEEDKWPEGSPKPVTQNISAEAWGRADCGITSASYQQGVLSATILYEILLGKATLYAVLVSTLVVMAMVKRKNSRRDQRLPPDAHKPPGGGSFRTPIQEEQADAHSTLAKI alpha: DVQLQESGGGLVQPGGSLRLSCTASGLTFNDYAVSWLRQAPGKEREFVATIRGSGGVTNYGASAEGRFIISRENAENTVYLQMNSLKSEDTAVYYCNARPLFGWSEEYWGQGTQVTVSSDIQNPEPAVYQLKDPRSQDSTLCLFTDFDSQINVPKTMESGTFITDKCVLDMKAMDSKSNGAIAWSNQTSFTCQDIFKETNATYPSSDVPCDATLTEKSFETDMNLNFQNLLVIVLRILLLKVAGFNLLMTLRLWSSRRDQRLPPDAHKPPGGGSFRTPIQEEQADAHSTLAKI
